Results are given in words; binding and its absence hold for the method and conditions named. In cells and extracts the contact can be indirect. Some entries that bind do so weakly or less than the wild type.
Biological target: Estrogen receptor 1 (ESR1) (rat (endogenous in rat liver tissue)) (UniProt P06211)
Assay: co-IP; proteins of rat liver tissue incubated with anti-ESR1 antibody or isotype control IgG; immunocomplexes blotted for TAK1

By UniProt entry, the sequences of proteins in these tests, tags left out.
UniProt P06211: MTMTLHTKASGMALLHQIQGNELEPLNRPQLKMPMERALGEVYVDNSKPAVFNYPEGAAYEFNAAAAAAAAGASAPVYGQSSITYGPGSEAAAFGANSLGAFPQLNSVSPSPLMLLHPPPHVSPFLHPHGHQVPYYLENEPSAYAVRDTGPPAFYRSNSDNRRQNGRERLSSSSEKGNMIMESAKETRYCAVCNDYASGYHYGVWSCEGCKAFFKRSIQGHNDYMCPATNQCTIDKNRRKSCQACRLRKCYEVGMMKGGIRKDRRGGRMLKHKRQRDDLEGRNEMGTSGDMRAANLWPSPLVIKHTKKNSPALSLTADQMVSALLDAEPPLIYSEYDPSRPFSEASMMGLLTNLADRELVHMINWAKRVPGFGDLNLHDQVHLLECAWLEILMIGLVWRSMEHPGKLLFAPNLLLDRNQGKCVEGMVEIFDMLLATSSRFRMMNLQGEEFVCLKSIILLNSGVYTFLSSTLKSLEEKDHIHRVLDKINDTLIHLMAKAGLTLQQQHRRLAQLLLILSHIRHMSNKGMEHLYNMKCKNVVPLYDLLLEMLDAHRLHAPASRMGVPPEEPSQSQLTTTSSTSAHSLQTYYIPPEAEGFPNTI

binding: binds
B1: TAK1 (protein, UniProt P0C8E4 1-606)
chain: MSTASAASSSSSSSASEMIEAPSQVLNFEEIDYKEIEVEEVVGRGAFGVVCKAKWRAKDVAIKQIESESERKAFIVELRQLSRVNHPNIVKLYGACLNPVCLVMEYAEGGSLYNVLHGAEPLPYYTAAHAMSWCLQCSQGVAYLHSMQPKALIHRDLKPPNLLLVAGGTVLKICDFGTACDIQTHMTNNKGSAAWMAPEVFEGSNYSEKCDVFSWGIILWEVITRRKPFDEIGGPAFRIMWAVHNGTRPPLIKNLPKPIESLMTRCWSKDPSQRPSMEEIVKIMTHLMRYFPGADEPLQYPCQYSDEGQSNSATSTGSFMDIASTNTSNKSDTNMEQVPATNDTIKRLESKLLKNQAKQQSDSGRLSLGASRGSSVESLPPTSEGKRMSADMSEIEARIVATTAYTKPKRGHRKTASFGNILDVPEIVISGNGQPRRRSIQDLTVTGTEPGQVSSRSSSPSVRMITTSGPTSEKPARSLPWTPDDSTDTNGSDNSIPMAYLTLDHQLQPLAPCPNSKESMAVFEQHCKMAQEYMKVQTEIALLLQRKQELVAELDQDEKDQQNTSRLVQEHKKLLDENKSLSTYYQQCKKQLEVIRSQQQKRQGTS

From paper PMC12413952
